No constants are given. Whether binding was seen depends on the method and setting. Binding seen in cells or lysates may run through a third protein. A yes stands for co-enrichment or nearness to the bait. Other partners may have been found.
Each molecule was assayed against N-terminal 3X-FLAG-tagged vertebrate GAF (vGAF/ThPOK/ZBTB7B), expressed in C2C12 myoblast cells (UniProt Q64321) (assay: affinity purification with mass spectrometry).

By UniProt entry, the sequences of proteins in these tests, tags left out.
UniProt Q64321: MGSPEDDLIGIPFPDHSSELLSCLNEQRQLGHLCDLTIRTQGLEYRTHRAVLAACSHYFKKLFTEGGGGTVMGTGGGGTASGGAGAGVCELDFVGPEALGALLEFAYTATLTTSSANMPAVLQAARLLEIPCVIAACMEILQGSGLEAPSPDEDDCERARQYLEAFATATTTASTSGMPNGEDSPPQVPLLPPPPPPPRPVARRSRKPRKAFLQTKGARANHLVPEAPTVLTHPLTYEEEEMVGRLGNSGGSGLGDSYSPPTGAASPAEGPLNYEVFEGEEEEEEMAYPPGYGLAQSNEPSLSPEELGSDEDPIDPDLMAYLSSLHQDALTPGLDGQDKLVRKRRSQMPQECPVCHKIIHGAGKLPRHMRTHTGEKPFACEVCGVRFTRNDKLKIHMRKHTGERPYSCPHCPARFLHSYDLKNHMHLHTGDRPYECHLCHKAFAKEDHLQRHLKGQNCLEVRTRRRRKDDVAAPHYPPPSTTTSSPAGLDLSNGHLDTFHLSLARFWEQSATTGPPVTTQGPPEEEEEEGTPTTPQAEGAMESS
UniProt Q7TQC5: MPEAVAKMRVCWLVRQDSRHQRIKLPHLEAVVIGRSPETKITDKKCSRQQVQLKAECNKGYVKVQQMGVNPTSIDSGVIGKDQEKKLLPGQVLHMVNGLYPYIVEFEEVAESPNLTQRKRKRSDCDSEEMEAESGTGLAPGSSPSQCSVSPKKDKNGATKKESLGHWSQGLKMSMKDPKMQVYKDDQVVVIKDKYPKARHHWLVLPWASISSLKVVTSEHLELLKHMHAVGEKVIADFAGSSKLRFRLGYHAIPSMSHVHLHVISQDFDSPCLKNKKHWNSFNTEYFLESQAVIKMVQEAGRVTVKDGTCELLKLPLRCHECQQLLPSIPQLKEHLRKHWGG
UniProt P70288: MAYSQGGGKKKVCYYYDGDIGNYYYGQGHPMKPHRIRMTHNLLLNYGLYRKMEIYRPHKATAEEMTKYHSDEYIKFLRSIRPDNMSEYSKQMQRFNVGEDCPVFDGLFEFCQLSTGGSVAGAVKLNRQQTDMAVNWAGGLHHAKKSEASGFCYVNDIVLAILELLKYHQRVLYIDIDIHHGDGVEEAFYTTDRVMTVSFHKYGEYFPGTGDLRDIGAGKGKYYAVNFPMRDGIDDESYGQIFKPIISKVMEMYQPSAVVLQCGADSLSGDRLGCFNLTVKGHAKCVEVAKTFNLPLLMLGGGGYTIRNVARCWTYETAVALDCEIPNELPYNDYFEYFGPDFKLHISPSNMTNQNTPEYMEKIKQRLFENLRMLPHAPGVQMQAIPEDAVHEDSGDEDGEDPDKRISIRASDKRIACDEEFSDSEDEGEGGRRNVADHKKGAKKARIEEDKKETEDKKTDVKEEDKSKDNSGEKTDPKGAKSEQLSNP
UniProt Q6PDQ2: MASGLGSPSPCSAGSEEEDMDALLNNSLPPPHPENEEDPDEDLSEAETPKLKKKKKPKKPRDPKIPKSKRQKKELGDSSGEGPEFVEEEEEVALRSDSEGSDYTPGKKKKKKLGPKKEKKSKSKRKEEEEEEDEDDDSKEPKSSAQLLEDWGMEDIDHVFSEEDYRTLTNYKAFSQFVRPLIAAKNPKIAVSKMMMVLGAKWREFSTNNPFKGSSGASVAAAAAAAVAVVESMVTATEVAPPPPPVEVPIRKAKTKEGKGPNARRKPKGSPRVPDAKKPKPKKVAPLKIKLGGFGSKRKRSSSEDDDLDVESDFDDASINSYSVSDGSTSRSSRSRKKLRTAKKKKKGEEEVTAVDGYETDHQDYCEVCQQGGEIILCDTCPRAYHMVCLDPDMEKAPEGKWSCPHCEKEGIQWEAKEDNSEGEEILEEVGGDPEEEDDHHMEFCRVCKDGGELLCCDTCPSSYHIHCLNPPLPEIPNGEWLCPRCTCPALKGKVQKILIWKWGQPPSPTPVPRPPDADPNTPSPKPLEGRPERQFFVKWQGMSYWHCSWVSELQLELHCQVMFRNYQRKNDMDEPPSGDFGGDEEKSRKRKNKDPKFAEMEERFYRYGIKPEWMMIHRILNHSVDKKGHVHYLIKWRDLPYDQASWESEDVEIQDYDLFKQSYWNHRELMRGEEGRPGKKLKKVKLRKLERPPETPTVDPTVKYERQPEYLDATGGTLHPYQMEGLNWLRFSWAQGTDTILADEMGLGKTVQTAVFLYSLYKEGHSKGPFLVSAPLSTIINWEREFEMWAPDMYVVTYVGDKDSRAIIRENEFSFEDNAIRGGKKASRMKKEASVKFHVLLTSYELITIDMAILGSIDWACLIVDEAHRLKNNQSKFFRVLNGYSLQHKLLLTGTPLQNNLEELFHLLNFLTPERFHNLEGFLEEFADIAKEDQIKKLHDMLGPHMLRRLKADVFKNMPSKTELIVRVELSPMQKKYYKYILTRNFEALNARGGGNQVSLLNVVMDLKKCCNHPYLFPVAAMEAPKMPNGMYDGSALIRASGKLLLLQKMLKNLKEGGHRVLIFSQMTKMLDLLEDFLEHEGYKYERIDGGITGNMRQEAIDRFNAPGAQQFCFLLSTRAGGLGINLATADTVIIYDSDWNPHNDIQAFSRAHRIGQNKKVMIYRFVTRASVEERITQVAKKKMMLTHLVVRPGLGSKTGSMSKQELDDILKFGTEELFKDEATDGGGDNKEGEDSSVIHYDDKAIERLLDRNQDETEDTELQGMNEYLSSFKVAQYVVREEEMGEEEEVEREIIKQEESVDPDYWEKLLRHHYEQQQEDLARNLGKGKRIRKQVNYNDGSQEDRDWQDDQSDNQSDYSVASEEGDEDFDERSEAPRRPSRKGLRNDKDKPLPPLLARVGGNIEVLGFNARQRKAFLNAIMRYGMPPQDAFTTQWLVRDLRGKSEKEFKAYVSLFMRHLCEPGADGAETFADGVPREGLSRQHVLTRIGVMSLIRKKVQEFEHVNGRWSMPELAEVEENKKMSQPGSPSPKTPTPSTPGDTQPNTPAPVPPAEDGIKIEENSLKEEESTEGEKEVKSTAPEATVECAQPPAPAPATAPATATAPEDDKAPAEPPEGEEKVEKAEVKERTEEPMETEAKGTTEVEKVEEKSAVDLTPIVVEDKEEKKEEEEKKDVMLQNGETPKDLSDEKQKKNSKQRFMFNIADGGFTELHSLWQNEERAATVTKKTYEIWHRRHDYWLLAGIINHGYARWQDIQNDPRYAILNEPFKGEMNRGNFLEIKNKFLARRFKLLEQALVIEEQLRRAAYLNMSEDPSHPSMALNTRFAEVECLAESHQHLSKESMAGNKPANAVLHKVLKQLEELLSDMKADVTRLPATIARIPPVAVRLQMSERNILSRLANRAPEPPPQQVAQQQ
UniProt P60122: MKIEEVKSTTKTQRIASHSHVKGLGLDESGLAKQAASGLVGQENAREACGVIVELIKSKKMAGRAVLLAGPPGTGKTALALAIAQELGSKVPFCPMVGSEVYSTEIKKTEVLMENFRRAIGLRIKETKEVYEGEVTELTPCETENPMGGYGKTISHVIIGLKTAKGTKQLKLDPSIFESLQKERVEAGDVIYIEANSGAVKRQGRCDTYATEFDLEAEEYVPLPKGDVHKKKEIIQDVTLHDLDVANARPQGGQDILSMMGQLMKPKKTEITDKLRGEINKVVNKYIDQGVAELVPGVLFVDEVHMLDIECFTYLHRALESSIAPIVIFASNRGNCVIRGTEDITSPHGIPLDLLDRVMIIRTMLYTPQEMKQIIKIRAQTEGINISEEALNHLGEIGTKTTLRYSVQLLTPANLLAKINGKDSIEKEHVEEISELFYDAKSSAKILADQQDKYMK
UniProt Q60596: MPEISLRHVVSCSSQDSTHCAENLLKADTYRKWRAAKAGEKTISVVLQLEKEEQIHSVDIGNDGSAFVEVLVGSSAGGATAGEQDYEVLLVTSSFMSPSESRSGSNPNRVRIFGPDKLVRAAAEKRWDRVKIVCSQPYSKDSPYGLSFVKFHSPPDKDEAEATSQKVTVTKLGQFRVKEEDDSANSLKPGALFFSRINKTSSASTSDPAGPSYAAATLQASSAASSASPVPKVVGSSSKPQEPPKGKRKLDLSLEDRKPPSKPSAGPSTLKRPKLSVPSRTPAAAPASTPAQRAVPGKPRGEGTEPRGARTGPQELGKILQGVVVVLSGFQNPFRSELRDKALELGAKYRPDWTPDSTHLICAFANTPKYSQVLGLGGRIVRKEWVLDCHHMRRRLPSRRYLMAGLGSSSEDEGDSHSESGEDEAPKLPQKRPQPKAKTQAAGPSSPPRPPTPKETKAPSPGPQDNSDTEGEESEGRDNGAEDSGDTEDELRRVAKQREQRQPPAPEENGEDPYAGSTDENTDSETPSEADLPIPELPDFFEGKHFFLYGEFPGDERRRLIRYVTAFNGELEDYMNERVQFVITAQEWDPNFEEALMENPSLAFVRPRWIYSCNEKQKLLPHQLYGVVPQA
UniProt O09106: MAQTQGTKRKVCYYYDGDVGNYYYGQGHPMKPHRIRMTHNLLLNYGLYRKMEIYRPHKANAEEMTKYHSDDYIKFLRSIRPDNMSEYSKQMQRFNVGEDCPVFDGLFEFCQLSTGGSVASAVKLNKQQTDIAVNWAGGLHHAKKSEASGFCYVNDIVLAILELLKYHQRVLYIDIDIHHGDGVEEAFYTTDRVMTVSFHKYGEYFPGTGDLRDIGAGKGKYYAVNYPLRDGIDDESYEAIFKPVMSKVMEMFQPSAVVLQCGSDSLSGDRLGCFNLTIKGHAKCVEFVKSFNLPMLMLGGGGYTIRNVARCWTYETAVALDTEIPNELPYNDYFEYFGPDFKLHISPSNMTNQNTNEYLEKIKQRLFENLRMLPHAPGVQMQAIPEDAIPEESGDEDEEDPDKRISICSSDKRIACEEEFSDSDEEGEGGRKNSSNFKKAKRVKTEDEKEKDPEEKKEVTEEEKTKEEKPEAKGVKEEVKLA
UniProt Q9WV02: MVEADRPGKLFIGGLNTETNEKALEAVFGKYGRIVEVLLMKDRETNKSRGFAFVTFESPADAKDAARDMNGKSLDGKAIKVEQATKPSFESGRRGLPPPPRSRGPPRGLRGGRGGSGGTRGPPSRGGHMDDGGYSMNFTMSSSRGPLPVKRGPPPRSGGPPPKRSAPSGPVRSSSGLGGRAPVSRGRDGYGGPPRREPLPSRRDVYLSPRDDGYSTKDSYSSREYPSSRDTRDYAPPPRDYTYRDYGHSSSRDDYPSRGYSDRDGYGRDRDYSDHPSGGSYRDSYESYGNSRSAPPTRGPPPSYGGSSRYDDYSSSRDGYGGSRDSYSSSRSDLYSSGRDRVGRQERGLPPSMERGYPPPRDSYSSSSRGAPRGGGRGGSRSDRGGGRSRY
UniProt Q9CQ71: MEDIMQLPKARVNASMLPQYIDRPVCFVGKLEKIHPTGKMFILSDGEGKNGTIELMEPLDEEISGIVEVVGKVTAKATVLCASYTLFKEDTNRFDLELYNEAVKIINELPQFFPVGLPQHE
UniProt Q8VEE4: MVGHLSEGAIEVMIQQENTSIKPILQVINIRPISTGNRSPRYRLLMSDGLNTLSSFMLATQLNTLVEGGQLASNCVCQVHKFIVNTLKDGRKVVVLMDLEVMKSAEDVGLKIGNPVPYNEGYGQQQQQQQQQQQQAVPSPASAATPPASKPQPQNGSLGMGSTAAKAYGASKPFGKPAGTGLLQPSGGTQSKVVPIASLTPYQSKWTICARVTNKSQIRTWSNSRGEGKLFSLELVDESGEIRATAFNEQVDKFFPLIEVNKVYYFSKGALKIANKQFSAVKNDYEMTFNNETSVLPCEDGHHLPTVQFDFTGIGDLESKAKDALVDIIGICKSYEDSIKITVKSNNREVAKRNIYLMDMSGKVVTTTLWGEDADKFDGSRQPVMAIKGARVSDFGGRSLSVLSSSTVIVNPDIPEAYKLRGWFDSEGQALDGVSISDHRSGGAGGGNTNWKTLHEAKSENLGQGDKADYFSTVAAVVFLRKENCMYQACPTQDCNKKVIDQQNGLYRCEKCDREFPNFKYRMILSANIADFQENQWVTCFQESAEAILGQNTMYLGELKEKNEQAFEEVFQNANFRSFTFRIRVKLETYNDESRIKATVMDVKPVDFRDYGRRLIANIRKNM
UniProt O88939: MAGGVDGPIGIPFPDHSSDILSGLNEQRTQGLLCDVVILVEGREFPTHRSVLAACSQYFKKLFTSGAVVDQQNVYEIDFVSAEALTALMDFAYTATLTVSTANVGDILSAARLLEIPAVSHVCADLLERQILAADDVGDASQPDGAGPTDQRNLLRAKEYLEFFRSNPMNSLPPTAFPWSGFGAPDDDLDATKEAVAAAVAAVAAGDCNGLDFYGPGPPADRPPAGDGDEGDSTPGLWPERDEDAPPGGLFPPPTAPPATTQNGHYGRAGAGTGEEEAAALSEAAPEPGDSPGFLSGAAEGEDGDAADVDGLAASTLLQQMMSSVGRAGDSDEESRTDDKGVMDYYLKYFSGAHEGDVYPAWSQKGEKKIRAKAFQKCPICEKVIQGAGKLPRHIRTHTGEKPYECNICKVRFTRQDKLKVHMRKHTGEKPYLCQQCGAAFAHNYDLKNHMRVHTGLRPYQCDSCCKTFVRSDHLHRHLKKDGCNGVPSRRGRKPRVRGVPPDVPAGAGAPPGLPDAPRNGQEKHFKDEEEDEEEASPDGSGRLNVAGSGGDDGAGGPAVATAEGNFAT

| Molecule | binding |
| --- | --- |
| RBM14 (endogenous, C2C12) (protein, UniProt Q8C2Q3 1-669) MKIFVGNVDGADTTPEELAALFAPYGTVMSCAVMKQFAFVHMRENAGAVRAIEALHGHELRPGRALVVEMSRPRPLNTWKIFVGNVSAACTSQELRSLFERRGRVIECDVVKDYAFVHMEKEADAKAAIAQLNGKEVKGKRINVELSTKGQKKGPALAIQSGDKTKKPGAGDTAFPGTGGFSATFDYQQAFGNSTGGFDGQARQPTPPFFGRDRSPLRRSPPRASYVAPLTAQPATYRAQPSVSLGAAYRAQPSASLGVGYRTQPMAAQAASYRAQPSVSLGAPYRGQLASPSSQSAAASSLGPYGGVQPSASALSTYGGQAAAASSLNSYGAQGSSLASYGNQPSSYGAQAASSYGVRAAASSYNTQGAASSLGSYGAQAASYGAQSAASSLAYGAQAASYSAQPSASYSAQSAPYAAQQAASYSSQPAAYVAQPATAAAYASQPAAYAAQATTPMAGSYGAQPVVQTQLNSYGAQASIGLSGSYGAQSAAAATGSYGAAAAYGAQPSATLAAPYRTQSSASLAASYAAQQHPQAAASYRGQPGSAYDGTGQPSAAYLSMSQGAVANANSTPPPYERTRLSPPRASYDDPYKKAVAMSKRYGSDRRLAELSDYRRLSESQLSFRRSPTKSSLDYRRLPDAHSDYARYSGSYNDYLRAAQMHSGYQRRM | binds |
| DOC-1 (protein, UniProt O35207 1-114) MSYKPNLTAHMPAAALNAGSVHSPSTSMATSSQYRQLLSDYGPPSLGYTQGTGNSQVPQSKYAELLAIIEELGKEIRPTYAGSKSAMERLKRGIIHARSLVRECLAETERNARS | binds |
| APLF (protein, UniProt Q9D842 1-499) MPSDFFLQPLDGGPRVPVGPGQTVIGRGPLLGITDKRVSRRHAILEVVDSQLRIKPIHRNPCFYQSSEKSQHSPMETQVWSQLHPGDSFSLLLDKYAFRVFSAESEVEMECTLRNSQMLDEDDILSEMQKSPVVNLPDKTTGASQLQGSPEITKTKCPTIDPMSSSGECRAFSEHQPRPTQRKRILPAWMLAESLSDQSLSTPAEGGDKDVIQRSGKAGTCEDRTPGNTSWHGKKRLSPSGNSKSVSAEQDPGKKCRKADQEGPGVSSENVPESSSSNIVKDPDVDIVKTNKQKDGILIEELGEVSKHKAATKPTTNEEGESCARVQSKSPPEKSQGCHPESSSAPSSPDALHTDTADPVLGCSEESKVRRTACMYGANCYRRNPLHFQHFSHPGDSDYGEVHGTDEGVIGDRPECPYGASCYRKNPQHKMEYRHSALPARVALDEDDDDVGQPSDDEDEEDYEPTDEDSDWHPGKDDEEQEDVDELLKEAKSSLHLKH | binds |
| ATRIP (protein, UniProt Q8BMG1 1-785) MAGTPAPNSHRKQSGGLEPFPGLSRSIENPPSKRARSFSETTVPDPEDPFGEHAEFTADDLEELDILASQALSQCPVAPRNLSSAHKVRRLDGLPNSPIRKSREDIPVKDNFELEVLQIQYKELKEKLKAMEEEILIKNGEIKILRDSLRQTESVLEEQKRSHFLLEQEKTQALSEKEKEFSRKLQSLQSELQFKDAEMNELRTKSQSNGRTNKPAAPSVSHVSPRKGSSVVLKSEACSPHVGKTTFPTKESFSANTPLFHPCQTEAGHRFLVGQEVSDNKNHSLGGSLMKQDVQQRILADGWMQRKDAQGSILINLLLKQPLVPGSSLGLCHLLSSCPEVPTGTLLQPPGLSTLPGTSGLRTISSSDGPFSPSALREAQNLAFTGLNLVARTESSHDGDMAGRRVFPLHQLPGAVHLLPLVQFFVGLHCQALQDLAPAKKSGVPGDSATHTSCMSSGVEASPEDSIHGLESFSVASLSVLQNLVCHSGAVVCLLLSGMGTEAAAREGNLVQTCADTTSASREDAHDQDQHPLLKMLLQLMASSSAASGHFQASVLGLCLKVLVKLAENASSDLLPRFSCVFPVLPQCLGSALPLPCVLLAVELLSVLLDHDSLAWQLCSHPEGCLLLRLYMYITSRPDRTASETQWLQLEQEVVWLLAKLSVQSPAPAGIGSDCHCNVEAVRALTVMLHRQWLTVRRAGGPRTHQQKQTIRCLRDTVLLLHSLSQKDKLFTVHCVEVLHQYDQVMPGVSMLIRALPDVTDCEEAALDDLCAAETDLEDSEMDCN | binds |

More lines, now with the values ahead:

| binding | Molecule |
| --- | --- |
| binds | ligase3 (protein, UniProt P97386 1-1015) MTLAFKILFPRNLCALGRKELCLFPEQNRWAAISQFSQWSETNLLGGCCLLQRRKPVLALQRGHLRPRATHLTFWPGSHVGLCTGPCAMAEQRFCVDYAKRGTAGCKKCKEKIVKGVCRIGKVVPNPFSESGGDMKEWYHIKCMFEKLERARATTKKIEDLTELEGWEELEDNEKEQISQHIADLSSKAAATPKKKAAVQAKLTTTGQVTSPVKGASFITSTNPRKFSGFSAAKPNNSEQAPSSPAPGTSLSASKCDPKHKDCLLREFRKLCAMVAENPSYNTKTQIIHDFLQKGSTGGFSDGFHGDVYLTVKLLLPGVIKSVYNLNDKQIVKLFSRIFNCNPDDMARDLEQGDVSETIRIFFEQSKSFPPAAKSLLTIQEVDAFLLHLSKLTKEDEQQQALQDIASRCTANDLKCIIRLIKHDLKMNSGAKHVLDALDPNAYEAFKASRNLQDVVERVLHNEQEVEKDPGRRRALRVQASLMTPVQPMLAEACKSIEYAMKKCPNGMFSEIKYDGERVQVHKKGDHFSYFSRSLKPVLPHKVAHFKDYIPKAFPGGQSMILDSEVLLIDNNTGKPLPFGTLGVHKKAAFQDANVCLFVFDCIYFNDVSLMDRPLCERRKFLHDNMVEIRNRIMFSEMKQVTKASDLADMINRVIREGLEGLVLKDVKGTYEPGKRHWLKVKKDYLNEGAMADTADLVVLGAFYGQGSKGGMMSIFLMGCYDPDSQKWCTVTKCAGGHDDATLARLQKELVMVKISKDPSKIPSWLKINKIYYPDFIVPDPKKAAVWEITGAEFSRSEAHTADGISIRFPRCTRIRDDKDWKSATNLPQLKELYQLSKDKADFAVVAGDEASPTTGGSSGENEGTAGSAGPCKGPPSKSSASAKTTEQKLNSPSSRGGIKPIPKHSPMKPGEKLAVKSSPVKVGMKRKATDETPCLKKVLLDVFTGVRLYLPPSTPDFKRLKRYFVAFDGDLVQEFDMGSATHVLGNREKNTDAQLVSSEWIWACIRKRRLIAPC |
| binds | ZNF281 (protein, UniProt Q99LI5 1-893) MKIGSGFLSGGGGPSSSGGSGSGGSSGSASGGSGGGRRAEMEPTFPQSMVMFNHRLPPVTSFTRPAGTAAPPPQCVLSSSTSAAPAAEPPPPPAPDMTFKKEPAASAAAFPSQRTSWGFLQSLVSIKQEKPADPEEQPSHHHHHHHHYGGLFAGAEERSPGLGGGEGGSHGVIQDLSLLHQHAQQQPAQHHRDVLLSSGSRTDEHGNQEPKQDANVKKAKRPKPESQGIKAKRKPSASSKPLVGEGEGAVLSPSQKPHICDHCSAAFRSSYHLRRHVLIHTGERPFQCSQCSMGFIQKYLLQRHEKIHSREKPFGCDQCSMKFIQKYHMERHKRTHSGEKPYKCDTCQQYFSRTDRLLKHRRTCGEAIAKGAASAEPGSSNHNSMGNLAVLSQGNTSSSRRKSKSKSIAIENKEHKTGKTNESQMSNNINMQSYSVEMPTVSTSGSIIGTGIDELQKRVPKLIFKKGSRKNADKSYLNFVSPLPDVVGQKSLSGKPGGSLGIVSNNSVETISLLQSTSGKQGPISSNYDDAMQFSKKRRYLPTASSNSAFSINVGHMVSQQSVIQSAGVSVLDNEAPLSLIDSSALNAEIKSCHDKSGIPDEVLQSILDQYSGKSETQKEDPFNLTEPRVDLHTSGEHSELVQEENLSPGTQTPSNDKTSMLQEYSKYLQQAFEKSTNAGFTLGHGFQFVSLSSPLHNHTLFPEKQIYTTSPLECGFGQSVTSVLPSSLPKPPFGMLFGSQPGLYLSALDATHQQLTPSQELDDLIDSQKNLETSSAFQSSSQKLTSQKEQQKNLESSTSFQIPSQELASQIDPQKDIEPRTTYQIENFAQAFGSQFKSGSRVPMTFITNSNGEVDHRVRTSVSDFSGYTNMMSDVSEPCSTRVKTPTSQSYR |
| binds | LAP2-beta (protein, UniProt Q61029 1-452) MPEFLEDPSVLTKDKLKSELVANNVTLPAGEQRKDVYVQLYLQHLTARNRPPLAAGANSKGPPDFSSDEEREPTPVLGSGASVGRGRGAVGRKATKKTDKPRLEDKDDLDVTELSNEELLDQLVRYGVNPGPIVGTTRKLYEKKLLKLREQGTESRSSTPLPTVSSSAENTRQNGSNDSDRYSDNDEDSKIELKLEKREPLKGRAKTPVTLKQRRTEHNQSYSQAGVTETEWTSGSSTGGPLQALTRESTRGSRRTPRKRVETSQHFRIDGAVISESTPIAETIKASSNESLVANRLTGNFKHASSILPITEFSDITRRTPKKPLTRAEVGEKTEERRVDRDILKEMFPYEASTPTGISASCRRPIKGAAGRPLELSDFRMEESFSSKYVPKYAPLADVKSEKTKKRRSVPMWIKMLLFALVAVFLFLVYQAMETNQGNPFTNFLQDTKISN |

Target: N-terminal 3X-FLAG-tagged vertebrate GAF (vGAF/ThPOK/ZBTB7B), expressed in C2C12 myoblast cells (UniProt Q64321)
Test: affinity purification with mass spectrometry
Remark: another data set of the same source

| Molecule | binding |
| --- | --- |
| ARID1A (from UniProt A2BH40 1-2283) | binds |
| ATR (ATM- and Rad3-Related) (from UniProt Q9JKK8 1-2635) | binds |
| Aprataxin (from UniProt Q7TQC5 1-342) | binds |
| CBX5 (endogenous, C2C12) (from UniProt Q61686 1-191) | binds |
| HDAC2 (from UniProt P70288 1-488) | binds |
| Ku60 (from UniProt P23475 1-608) | binds |
| Mi-2beta/CHD4 (from UniProt Q6PDQ2 1-1915) | binds |
| PNKP (from UniProt Q9JLV6 1-522) | binds |
| RPA32 (from UniProt Q62193 1-270) | binds |
| RUVBL1 (from UniProt P60122 1-456) | binds |
| SNF2H (from UniProt Q91ZW3 1-1051) | binds |
| XRCC1 (from UniProt Q60596 1-631) | binds |
| p65 (endogenous, C2C12) (from UniProt Q04207 1-549) | binds |
| p66-alpha (from UniProt Q8CHY6 1-629) | binds |

Now from value to molecule:

| binding | Molecule |
| --- | --- |
| binds | BAZ1A (from UniProt O88379 1-1555) |
| binds | HDAC1 (endogenous, C2C12) (from UniProt O09106 1-482) |
| binds | Ku80 (from UniProt P27641 1-732) |
| binds | PRPF19 (from UniProt Q99KP6 1-504) |
| binds | RBMX (from UniProt Q9WV02 1-391) |
| binds | RPA14 (from UniProt Q9CQ71 1-121) |
| binds | RPA70 (from UniProt Q8VEE4 1-623) |
| binds | ZBTB7A/LRF (from UniProt O88939 1-569) |
| binds | p66-beta (from UniProt Q8VHR5 1-594) |

From publication doi:10.1101/559641
